From US7615356B2, “Ion channel assay methods” (Vertex Pharmaceuticals (San Diego) LLC, priority 2000, dated 2009)
Where two headings read alike, the source gives them in different places.

The chains behind the UniProt entries cited, without tags or fusion partners.
UniProt A0A8C2MK62, entry or part of it: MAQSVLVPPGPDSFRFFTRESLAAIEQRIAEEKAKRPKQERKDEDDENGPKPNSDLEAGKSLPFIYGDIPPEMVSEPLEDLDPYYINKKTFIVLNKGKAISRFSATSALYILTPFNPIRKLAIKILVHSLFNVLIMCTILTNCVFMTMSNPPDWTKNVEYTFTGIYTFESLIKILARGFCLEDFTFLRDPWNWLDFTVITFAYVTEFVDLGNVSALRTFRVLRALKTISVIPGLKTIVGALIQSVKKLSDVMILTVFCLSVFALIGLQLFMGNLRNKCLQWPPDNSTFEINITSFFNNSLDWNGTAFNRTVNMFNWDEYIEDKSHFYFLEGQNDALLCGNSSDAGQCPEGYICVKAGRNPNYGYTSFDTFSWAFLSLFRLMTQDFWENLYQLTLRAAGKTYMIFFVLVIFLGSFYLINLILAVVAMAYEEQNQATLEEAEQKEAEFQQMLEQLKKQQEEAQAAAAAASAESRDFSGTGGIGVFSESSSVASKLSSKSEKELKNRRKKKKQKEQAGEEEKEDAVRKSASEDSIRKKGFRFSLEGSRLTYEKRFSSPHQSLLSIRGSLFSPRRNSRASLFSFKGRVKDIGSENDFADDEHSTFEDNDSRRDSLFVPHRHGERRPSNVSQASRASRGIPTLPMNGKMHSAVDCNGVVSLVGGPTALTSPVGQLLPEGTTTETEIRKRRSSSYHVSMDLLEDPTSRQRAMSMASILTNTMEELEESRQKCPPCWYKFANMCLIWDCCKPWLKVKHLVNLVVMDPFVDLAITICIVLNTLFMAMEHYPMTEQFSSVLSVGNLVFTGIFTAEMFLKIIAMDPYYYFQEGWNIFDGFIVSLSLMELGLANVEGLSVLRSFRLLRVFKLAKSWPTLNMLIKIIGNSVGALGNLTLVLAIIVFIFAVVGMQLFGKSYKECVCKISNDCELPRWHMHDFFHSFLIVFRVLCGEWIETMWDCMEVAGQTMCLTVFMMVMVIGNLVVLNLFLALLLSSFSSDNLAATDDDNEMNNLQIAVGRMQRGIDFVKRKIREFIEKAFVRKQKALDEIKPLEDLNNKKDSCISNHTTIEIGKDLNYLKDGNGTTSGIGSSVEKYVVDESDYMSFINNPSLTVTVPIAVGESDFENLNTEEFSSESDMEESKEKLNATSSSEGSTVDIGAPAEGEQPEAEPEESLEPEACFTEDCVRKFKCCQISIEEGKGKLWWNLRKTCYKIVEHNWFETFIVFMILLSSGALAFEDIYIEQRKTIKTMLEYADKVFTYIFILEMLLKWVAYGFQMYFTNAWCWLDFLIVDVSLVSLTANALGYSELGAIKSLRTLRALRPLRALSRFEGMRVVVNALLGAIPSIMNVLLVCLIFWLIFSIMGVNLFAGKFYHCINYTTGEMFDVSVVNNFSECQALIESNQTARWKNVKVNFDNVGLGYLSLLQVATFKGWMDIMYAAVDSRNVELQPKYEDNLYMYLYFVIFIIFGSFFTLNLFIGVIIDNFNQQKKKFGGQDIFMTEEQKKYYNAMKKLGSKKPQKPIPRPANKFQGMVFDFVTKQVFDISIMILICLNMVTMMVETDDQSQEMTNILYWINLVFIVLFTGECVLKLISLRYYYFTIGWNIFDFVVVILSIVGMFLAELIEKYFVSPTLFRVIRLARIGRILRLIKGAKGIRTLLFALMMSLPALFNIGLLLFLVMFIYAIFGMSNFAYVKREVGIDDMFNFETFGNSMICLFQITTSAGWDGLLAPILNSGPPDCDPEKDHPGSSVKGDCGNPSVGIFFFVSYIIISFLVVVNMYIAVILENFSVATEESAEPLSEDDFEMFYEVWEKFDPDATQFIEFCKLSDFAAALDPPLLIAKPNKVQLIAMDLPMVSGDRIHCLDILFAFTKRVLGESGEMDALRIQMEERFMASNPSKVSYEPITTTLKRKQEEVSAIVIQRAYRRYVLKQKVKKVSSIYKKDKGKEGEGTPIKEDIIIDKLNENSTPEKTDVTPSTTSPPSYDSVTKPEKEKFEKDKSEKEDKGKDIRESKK

Molecular target: endogenous NaV channels of Chinese Hamster Ovary cells (Nav 1.2a) (Cricetulus griseus, UniProt A0A8C2MK62)
Experiment: Use-dependent block, repetitive electrical stimulation at 1 Hz, CHO cells
Assay type: cell-based

With `COc1ccc(CCN2CCC(Nc3nc4ccccc4n3Cc3ccc(F)cc3)CC2)cc1` [astemizole] the IC50 (read-out: IC50 @ 1st peak) was 4120 ± 2030 nM and the IC50 (read-out: IC50 @ 20th peak) was 1830 ± 680 nM.
